Test results: the supplement of paper PMC4635364
Where a name gives a salt, the structure may show the parent alone. This is one part of the list. Repeats in this data set agree poorly, so a single value says little.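 Human fetal ventral-midbrain neural progenitor line ReNCell VM, differentiated without mitogens. Images stained for doublecortin (early neurons) or tyrosine hydroxylase (dopaminergic neurons) were scored by blinded raters against untreated wells (0 = no change). Repeats and both raters were averaged, and compounds averaging 2 or higher were picked as hits for retesting.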

Experiments:
[1] = tested on: ReNCell VM; experiment: neuronal differentiation score (DCX+ cell fraction vs untreated, manual image score) (score (-3 to 3)); higher = more neuronal differentiation; settings: 2 uM, 2 weeks
[2] = tested on: ReNCell VM; experiment: dopaminergic neuron differentiation score (TH+ cell fraction vs untreated, manual image score) (score (0 to 3)); higher = more TH+ dopaminergic neuron differentiation; settings: 2 uM, 4 weeks, BDNF 10 ng/ml + GDNF 10 ng/ml

For `COP(=O)(OC)OC(c1ccc(Cl)cc1)P(=O)(OC)OC` (stereo not drawn), the neuronal differentiation score ([1]; library: Tocriscreen) was inactive: 0 and the “dopaminergic neuron differentiation score” value ([2]; library: Tocriscreen) was inactive: 0.

`Oc1ccc2c(c1)OC[C@]1(O)Cc3cc(O)c(O)cc3[C@H]21` was tested, and the neuronal differentiation score ([1]; library: Spectrum) was inactive: 0 and the “dopaminergic neuron differentiation score” value ([2]; library: Spectrum) was inactive: 0.

`CCOC(=O)C1=C[C@]2(CC)CCCN3CCc4c(n1c1ccccc41)[C@@H]32` was tested, and the neuronal differentiation score ([1]; library: Spectrum) was inactive: 0 and the “dopaminergic neuron differentiation score” value ([2]; library: Spectrum) was inactive: 0.

`CC[C@H](c1ccc(O)cc1)[C@@H](CC)c1ccc(O)cc1` [Hexestrol] was tested, and the neuronal differentiation score ([1]; library: Prestwick) was inactive: 0 and the “dopaminergic neuron differentiation score” value ([2]; library: Prestwick) was inactive: 0.

For `Cc1ncc(CSSCc2cnc(C)c(O)c2CO)c(CO)c1O`, the neuronal differentiation score ([1]; library: Spectrum) was inactive: 0 and the “dopaminergic neuron differentiation score” value ([2]; library: Spectrum) was inactive: 0.

In the case of `O=C(Nc1ccccc1)c1ccccc1O`, the neuronal differentiation score ([1]; library: Spectrum) is reported as inactive: 0 and the “dopaminergic neuron differentiation score” value ([2]; library: Spectrum) is reported as inactive: 0.

With `CN(C)CCC(c1ccc(Cl)cc1)c1ccccn1` (stereo not drawn) the neuronal differentiation score ([1]; library: Spectrum) was inactive: 0 and the “dopaminergic neuron differentiation score” value ([2]; library: Spectrum) was inactive: 0.

For `Cc1c(OCC(F)(F)F)ccnc1C[S+]([O-])c1nc2ccccc2[nH]1` (stereo not drawn), the neuronal differentiation score ([1]; library: Spectrum) was inactive: 0 and the “dopaminergic neuron differentiation score” value ([2]; library: Spectrum) was inactive: 0.

With `CC(O)C(=O)O.N` (stereo not drawn) the neuronal differentiation score ([1]; library: Spectrum) was inactive: 0 and the “dopaminergic neuron differentiation score” value ([2]; library: Spectrum) was inactive: 0.

In the case of `COC(=O)C[C@](O)(CCCC(C)(C)O)C(=O)O[C@@H]1C(OC)=C[C@]23CCCN2CCc2cc4c(cc2[C@H]13)OCO4` [Homoharringtonine], the neuronal differentiation score ([1]; library: Tocriscreen) is reported as inactive: 0 and the “dopaminergic neuron differentiation score” value ([2]; library: Tocriscreen) is reported as inactive: 0.

With `NC(N)=NC(N)=Nc1cccc(Cl)c1` [m-Chlorophenylbiguanide hydrochloride] the neuronal differentiation score ([1]; library: Tocriscreen) was inactive: 0 and the “dopaminergic neuron differentiation score” value ([2]; library: Tocriscreen) was inactive: 0.

For `CC(C)(C)NC(=O)[C@@H]1C[C@@H]2CCCC[C@@H]2CN1C[C@@H](O)[C@H](Cc1ccccc1)NC(=O)[C@H](CC(N)=O)NC(=O)c1ccc2ccccc2n1` [Saquinavir mesylate], the neuronal differentiation score ([1]; library: Prestwick) was inactive: 0 and the “dopaminergic neuron differentiation score” value ([2]; library: Prestwick) was inactive: 1.

For `COc1ccc2cc1Oc1ccc(cc1)C[C@H]1c3cc(c(OC)cc3CCN1C)Oc1c(OC)c(OC)cc3c1[C@H](C2)N(C)CC3` [Tetrandrine], the neuronal differentiation score ([1]; library: Phytochemical) was inactive: 0 and the “dopaminergic neuron differentiation score” value ([2]; library: Phytochemical) was inactive: 0.

For `CN(C)CCOC(c1ccc(Cl)cc1)c1ccccn1` (stereo not drawn), the neuronal differentiation score ([1]; library: Spectrum) was inactive: 0 and the “dopaminergic neuron differentiation score” value ([2]; library: Spectrum) was inactive: 0.

For `Cc1cc(CC(=O)O)n(C)c1C(=O)c1ccc(Cl)cc1`, the neuronal differentiation score ([1]; library: Spectrum) was inactive: -1 and the “dopaminergic neuron differentiation score” value ([2]; library: Spectrum) was inactive: 0.

`CN(C)CCN(Cc1cccs1)c1ccccn1` was tested, and the neuronal differentiation score ([1]; library: Spectrum) was inactive: 0 and the “dopaminergic neuron differentiation score” value ([2]; library: Spectrum) was inactive: 0.

`CN1CCc2cccc3c2[C@H]1Cc1ccc(O)c(O)c1-3` [(R)-(-)-Apomorphine hydrochloride] was tested, and the neuronal differentiation score ([1]; library: Tocriscreen) was inactive: 0 and the “dopaminergic neuron differentiation score” value ([2]; library: Tocriscreen) was inactive: 1.

`O=c1c(-c2ccc(O)cc2)coc2cc(O)cc(O)c12` was tested, and the neuronal differentiation score ([1]; library: Spectrum) was inactive: 0 and the “dopaminergic neuron differentiation score” value ([2]; library: Spectrum) was inactive: 0.

With `CN(C)c1nc(N)c(C(=O)Nc2cccnc2)nc1Cl` [ACDPP hydrochloride] the neuronal differentiation score ([1]; library: Tocriscreen) was inactive: 0 and the “dopaminergic neuron differentiation score” value ([2]; library: Tocriscreen) was inactive: 0.

For `Cc1ccccc1N=Nc1ccc(NC(=O)c2ccnn2C)c(C)c1`, the neuronal differentiation score ([1]; library: Tocriscreen) was inactive: 0 and the “dopaminergic neuron differentiation score” value ([2]; library: Tocriscreen) was inactive: 0.

`COc1ccc(-c2ccc3cc(C(=O)O)ccc3c2)cc1C12CC3CC(CC(C3)C1)C2` was tested, and the neuronal differentiation score ([1]; library: Spectrum) was inactive: -1 and the “dopaminergic neuron differentiation score” value ([2]; library: Spectrum) was inactive: 0.

For `COc1cccc2c1C(=O)c1c(O)c3c(c(O)c1C2=O)C[C@@](O)(C(=O)CO)C[C@@H]3O[C@H]1C[C@H](N)[C@@H](O)[C@H](C)O1`, the neuronal differentiation score ([1]; library: Spectrum) was inactive: 0 and the “dopaminergic neuron differentiation score” value ([2]; library: Spectrum) was inactive: 0.

`COC1=CC(=O)C(C(=O)c2ccccc2)=CC1=O` was tested, and the neuronal differentiation score ([1]; library: Spectrum) was inactive: 0 and the “dopaminergic neuron differentiation score” value ([2]; library: Spectrum) was inactive: 0.

`O=C1NC(=S)S/C1=C\c1cc(Br)ccc1OCc1ccccc1Br` [PRL-3 Inhibitor I] was tested, and the neuronal differentiation score ([1]; library: LOPAC) was inactive: 0 and the “dopaminergic neuron differentiation score” value ([2]; library: LOPAC) was inactive: 0.
